From PMC4650443 come the findings set out here.

These are yes or no findings as the source states them, for the method shown. For some of these results: Binding seen in cells or lysates may run through a third protein. Some entries that bind do so weakly or less than the wild type.

One experiment concerns the target GST-tagged cyclin E (UniProt P24864). The experiment can be described thus: pull-down; purified GST or GST-tagged cyclin E immobilised on glutathione-agarose (Pierce spin column); MCF-7 cell extract with DNase, 4 °C, at least 6 h; five washes; eluate probed with anti-DEC1 and anti-GST; only the target purified.
The target of experiment [1] is endogenous cyclin E (human (endogenous in MCF-7)) (UniProt P24864). The experiment can be described thus: co-IP; MCF-7 cell extract immunoprecipitated with anti-cyclin E antibody (anti-IgG as control) and protein A-Sepharose, 4 °C, 24 h; endogenous proteins detected by blot; cells with or without serum; Figure 3i,j: cells transfected with GFP-DEC1 or empty vector, MG132 8 h; Figure 6c: cells transfected with Flag-DEC1 or empty vector, at times after release from nocodazole.

The target of the next experiment is Flag-DEC1 (UniProt O14503). The experiment can be described thus: co-IP; MCF-7 transfected with tagged proteins; cell extract (50 mM Tris-HCl pH 8.0, 150 mM NaCl, 0.1% SDS, 1% NP-40, 0.5% sodium deoxycholate) with anti-Flag or anti-HA antibody and protein A-Sepharose, 4 °C, 24 h; washes with 500 mM NaCl; cells with serum or serum-starved 24 h; Figure 4j: at times after release from nocodazole.

The target of the next experiment is pBIND-cyclin E (UniProt P24864). Kind of experiment: two-hybrid; CheckMate mammalian two-hybrid system (Promega) in MCF-7 cells: pBIND and pACT fusions with pG5-luc, luciferase read-out; with or without serum starvation; Figures 5c and 6d also with Flag-DEC1 co-expressed, Figure 6d in synchronised cells.
In another experiment the target is Myc-tagged cyclin E (UniProt P24864). The experiment can be described thus: co-IP; MCF-7 transfected with two tagged partners with or without DEC1 (GFP-DEC1 or Flag-DEC1) co-expressed; cell extract immunoprecipitated with anti-Myc antibody, probed with anti-Flag, anti-GFP or anti-HA; Figure 3g,h: MG132 8 h, with serum or serum-free.

As for “endogenous DEC1 (from UniProt O14503 1-412)”, the binding entry (with GST-tagged cyclin E; in experiment [1]) was “binds” in each case.
As for “Myc-tagged cyclin E (from UniProt P24864-3 1-395)”, the binding result in the experiment with Flag-DEC1 was “binds”.
On to “endogenous cyclin E (from UniProt P24864 1-410)”, for which the binding entry with Flag-DEC1 is reported as “binds”.
Consider pACT-DEC1 (from UniProt O14503 1-412), for which the binding result in the experiment with pBIND-cyclin E is “binds”.
As for GFP-DEC1 (from UniProt O14503 1-412), the binding result (with Myc-tagged cyclin E; in experiment [1]) was “binds” throughout.
